Assay results from PubChem BioAssay AID1439 (NMMLSC, 2008).
The campaign covered roughly 220,000 compounds. About 770 (0.35%) were called active. The shares of active, inactive and inconclusive entries below differ from those in the screen. Cut-off read from the data, not from the text of the source: active = binding response below about 49% or above about 150%; inconclusive = no clear call, values can overlap the other calls; inactive = in between.

By UniProt entry, the sequences of proteins in these tests, tags left out.
UniProt P09471, whole entry, looked up: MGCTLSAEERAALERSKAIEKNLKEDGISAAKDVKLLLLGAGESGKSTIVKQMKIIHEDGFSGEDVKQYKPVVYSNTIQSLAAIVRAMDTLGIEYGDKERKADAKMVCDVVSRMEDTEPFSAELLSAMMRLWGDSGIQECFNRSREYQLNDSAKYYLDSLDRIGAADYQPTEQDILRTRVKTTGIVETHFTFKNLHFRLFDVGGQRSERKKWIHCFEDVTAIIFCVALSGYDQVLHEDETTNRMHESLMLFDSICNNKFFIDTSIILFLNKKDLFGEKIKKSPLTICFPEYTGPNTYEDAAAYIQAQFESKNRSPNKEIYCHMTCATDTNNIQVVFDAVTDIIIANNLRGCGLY

The molecules below were run against Guanine nucleotide-binding protein G(o) subunit alpha (Homo sapiens) (UniProt P09471) (assay: RGS7-Galphao binding modulators, primary screen, biochemical, multiplexed bead flow cytometry (AID 1439;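 note: fluorescent Galphao held in activated GDP-AlF4 state binding bead-coupled RGS7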)). Conditions: at 10 µM, actives lie on both sides.

Structure (SMILES)	binding response (% of control)
COc1cc2c(cc1OC)C(C)N(S(=O)(=O)c1cn(C)c(C)n1)CC2 (stereo not given)	inconclusive: 132%
Cc1c(C)c(C)c(C(=O)C2CCN(c3ccc([N+](=O)[O-])cn3)CC2)c(C)c1C	inconclusive: 146%
NC(=O)N/N=C/c1coc2ccc(O)cc2c1=O	inconclusive: 137%
CN=CC1=C(O)CC(C)(C)CC1=O	inactive: 103%
O=C(O)c1ccccc1C(=O)Nc1ccc(Oc2ccccc2)cc1	inconclusive: 96.2%
O=C(NCc1cccc(F)c1)C1CCN(C(=O)c2sccc2-n2cccc2)CC1	inactive: 96.9%
O=C(NCC(O)CN1CCOCC1)c1ccc([N+](=O)[O-])cc1 (stereo not given)	inactive: 99.6%
CCC(C)[C@H](NC(=O)N1CCCCC1)C(=O)OC (stereo not given in full)	inconclusive: 109%
O=C(Nc1ccccc1Cl)Oc1ccc(-c2ccccc2)cc1	inconclusive: 112%
O=C(O)CNS(=O)(=O)c1c(Cl)cccc1Cl	inconclusive: -198%
COc1ccc(OC)c(S(=O)(=O)Nc2ccc3c(c2)C(=O)OC3)c1	inconclusive: 105%
COc1ccc(CC(=O)OCC(=O)Nc2ccc(N3CCOCC3)cc2)cc1	inconclusive: 60.5%
Cc1cccc(C)c1NC(=O)CNC(=O)Cc1ccc(Br)cc1	inconclusive: 94.5%
COc1ccc(CCNC(=O)COC(=O)Cc2cc(OC)c(OC)c(OC)c2)cc1	inconclusive: 96.1%
Cc1cnc(NC(=O)Cn2cnc3c2c(=O)n(C)c(=O)n3C)s1	inconclusive: 99.4%
O=C(CC1SC(=Nc2ccc(OC(F)F)cc2)N(CCN2CCOCC2)C1=O)Nc1ccc(F)cc1F (stereo not given)	inconclusive: 84.7%
Cc1ccc(SC[C@H](CC(C)C)N2CCN(CCc3ccccc3)CCC2=O)cc1	inconclusive: 119%
Cc1onc(-c2ccccc2)c1CNS(=O)(=O)c1cccc(Cl)c1	inconclusive: 28.1%
CCOC(=O)c1ccc(NC(=O)[C@@H](NC(N)=O)C(C)C)cc1	inconclusive: 82.5%
Cc1ccc(OCC(=O)Nc2cc(S(=O)(=O)N3CCOCC3)ccc2Cl)c([N+](=O)[O-])n1	inconclusive: 81.8%
COc1ccc(C(=O)COC(=O)C2CCC(=O)N2)cc1 (stereo not given)	inconclusive: 93.6%
CCSC(=S)Nc1c(C)n(C)n(-c2ccccc2)c1=O	inconclusive: 108%
CC1=NN(c2ccccc2)C(=O)/C1=C\c1cc(C)n(-c2cccnc2)c1C	inconclusive: -145%
Cc1nnc(NC(=O)c2ccc(S(=O)(=O)N3CCOCC3)cc2)s1	inconclusive: 120%
Cc1cc2nc(/C=C/c3nc4cc(C)c(C)cc4[nH]3)[nH]c2cc1C	inconclusive: 132%
CCN(CC)CCN1C(=O)C(=O)/C(=C(/O)c2c(C)[nH]c(C(=O)OC)c2C)C1c1ccc(C)o1 (stereo not given)	inconclusive: 72%
Cc1cccc(NC(=O)CNC(=O)COc2cc(F)ccc2[N+](=O)[O-])c1C	inconclusive: 107%
CC(Oc1ccccc1)C(=O)N1CCN=C1SCc1cccc(F)c1 (stereo not given)	inconclusive: 89.5%

Looked up above.
binding response (% of control) with CN=CC1=C(O)CC(C)(C)CC1=O reads inactive: 103%
binding response (% of control) with CC(Oc1ccccc1)C(=O)N1CCN=C1SCc1cccc(F)c1 (stereo not given) reads inconclusive: 89.5%
binding response (% of control) with Cc1ccc(SC[C@H](CC(C)C)N2CCN(CCc3ccccc3)CCC2=O)cc1 reads inconclusive: 119%
binding response (% of control) with Cc1cc2nc(/C=C/c3nc4cc(C)c(C)cc4[nH]3)[nH]c2cc1C reads inconclusive: 132%
binding response (% of control) with CCN(CC)CCN1C(=O)C(=O)/C(=C(/O)c2c(C)[nH]c(C(=O)OC)c2C)C1c1ccc(C)o1 (stereo not given) reads inconclusive: 72%

Following part.

Structure (SMILES)	binding response (% of control)
O=c1[nH]c(CSc2nnc(Nc3ccccc3)s2)nc2ccccc12	inconclusive: 25.1%
COc1ccc(-c2ccc(C(C)=O)cc2)cc1[C@H]1[C@@H]2C=CCC[C@@]2(C)C(=O)N1Cc1ccccc1	inconclusive: 105%
COc1ccccc1C(=O)N1CCN(Cc2nc3cc([N+](=O)[O-])ccc3n2C)CC1	inconclusive: 118%
C(=C\N1CCCCCC1)/c1nnnn1-c1ccc(-c2ccccc2)cc1	inconclusive: 102%
c1ccc2c(c1)OCCOCCOc1ccccc1OCCOCCO2	active: 191% [activator]
CCOc1cccc(C(=O)Nc2ccc3oc(-c4cccnc4)nc3c2)c1	inconclusive: 106%
CC(=O)Nc1ccc(S(=O)(=O)N[C@@H](C)C(=O)OCc2cc([N+](=O)[O-])cc3c2OCOC3)cc1	inconclusive: 101%
CCN(CC)S(=O)(=O)c1ccc(N/N=C(\C)c2ccc3c(c2)OCO3)c([N+](=O)[O-])c1	inactive: 99.8%
Cc1ccc(NC(=S)N(CCN2CCOCC2)Cc2cc3cc4c(cc3[nH]c2=O)OCCO4)cc1	inconclusive: 88.5%
Cc1nc2c(c(=O)c3ccccc3n2C)c(=O)n1C1CCCCCC1	inconclusive: 148%
COc1cccc(/C=N/Nc2ncccc2[N+](=O)[O-])c1OC	inconclusive: 95%
CC1=C(C)CC(C(=O)Nc2cccc(Cl)c2)C(C(=O)O)C1 (stereo not given)	inactive: 99.3%
COC(=O)c1ccccc1NC(=S)NC(C)=O	inconclusive: 115%
Cc1ccc(S(=O)(=O)Nc2cc(-c3ccccc3)nn2C)cc1Cl	inconclusive: 25.3%
Cc1cc(NC(=O)COC(=O)[C@H](Cc2c[nH]c3ccccc23)NC(=O)c2ccc(F)cc2)no1	inactive: 105%
Cc1ccnc(NC(=O)c2ccc3c(c2)S(=O)(=O)c2ccccc2C3=O)c1	inconclusive: 106%
Cc1cc(C)cc(OCC(=O)O/N=C(\N)c2cccnc2)c1	inconclusive: 105%
c1csc(-c2nc3ccccn3c2NC2CCCCC2)c1	inconclusive: 109%
O=c1[nH]c2ccccc2nc1-c1ccc(Cl)cc1	inconclusive: 97.3%
O=C(O)CC(C(=O)O)N1C(=O)/C(=C/C=C/c2ccco2)SC1=S (stereo not given)	inconclusive: 104%
Cc1ccc(N2C(=O)[C@@H]3[C@H](C2=O)[C@H]2C=CC=NN2[C@@H]3C(=O)Nc2ccccc2)cc1	inconclusive: 547%
O=C1NC(C(=O)O)=CC(c2ccc([N+](=O)[O-])cc2)N1 (stereo not given)	inconclusive: -237%
NC(=O)COC(=O)c1sc2ccccc2c1Cl	inconclusive: 97.4%
CCCc1cnc(N2CCN(S(=O)(=O)c3cccs3)CC2)nc1	inconclusive: 93.8%
COc1ccc(CC(=O)N2CCN(S(=O)(=O)c3cccs3)CC2)cc1OC	inconclusive: 353%
O=C(NNc1ccc(Cl)nn1)c1ccc(Cl)cc1	inactive: 100%
O=[N+]([O-])c1ccc(-c2nn(-c3ccccc3)cc2/C=N/n2c(-c3cccs3)n[nH]c2=S)cc1	inconclusive: 84.2%
